From article PMC10937811
These are yes or no findings as the source states them, for the method shown. Binding seen in cells or lysates may run through a third protein. Here binding means that the protein was enriched with, or labelled near, the bait; the list need not be complete. Blank lines part the entries; values can stand above or below the binder they belong to.

Biological target: mouse APOL6 (Apolipoprotein L6) (mouse (endogenous in ATMSCs of C57BL/6 mice))
Experiment: affinity purification with mass spectrometry; immunoprecipitates of ATMSCs from C57BL/6 WT or mAPOL6 KO mice, rabbit antibodies raised against the mAPOL6 D36-K52 peptide; mass spectrometry

binding: binds
B1: myosin essential light chain (A0A1W2P6F6) (protein, UniProt Q60605 1-151)
chain: MCDFTEDQTAEFKEAFQLFDRTGDGKILYSQCGDVMRALGQNPTNAEVLKVLGNPKSDEMNVKVLDFEHFLPMLQTVAKNKDQGTYEDYVEGLRVFDKEGNGTVMGAEIRHVLVTLGEKMTEEEVEMLVAGHEDSNGCINYEAFVRHILSG

binding: binds
B2: myosin regulatory light chain (Q3THE2) (protein, UniProt Q3THE2 1-172)
chain: MSSKKAKTKTTKKRPQRATSNVFAMFDQSQIQEFKEAFNMIDQNRDGFIDKEDLHDMLASLGKNPTDAYLDAMMNEAPGPINFTMFLTMFGEKLNGTDPEDVIRNAFACFDEEATGTIQEDYLRELLTTMGDRFTDEEVDELYREAPIDKKGNFNYIEFTRILKHGAKDKDD
